Measured values published in patent publication US20250143290A1, “AGROCHEMICAL COMPOSITION COMPRISING AT LEAST ONE AGROCHEMICAL ACTIVE COMPONENT AND A SOLVENT” (MINAGRO SRL, priority 2022, published 2025).

How the values were obtained:
[1] = tested on: wheat leaves; test: Droplet behavior on wheat leaf fragment; design: key to Retention: 0.5: the droplets stick after more than 10 attempts; the droplets stick after 5 to 10 attempts; the droplets stick after 2 to 4 attempts; 3: the droplets stick immediately; key to Shape of the drop just after deposit / Shape of the drop during drying: 1: drop round (very little surface contact); 2: light spread; 3: moderate spread; 4: high spread; 5: very high spread
[2] = tested on: soybean leaves; test: Droplet behavior on soybean leaf fragment; design: key to Retention: 0.5: the droplets stick after more than 10 attempts; the droplets stick after 5 to 10 attempts; the droplets stick after 2 to 4 attempts; 3: the droplets stick immediately; key to Shape of the drop just after deposit / Shape of the drop during drying: 1: drop round (very little surface contact); 2: light spread; 3: moderate spread; 4: high spread; 5: very high spread
[3] = tested on: wheat leaves; test: Penetration driving force on wheat leaves; design: key to Penetration: 1: no; 2: yes; key to Intensity of the penetration strength: 1: very light; 2: light; 3: medium; 4: high; settings: wheat leaf, 2%; for Penetration: 1 μL droplet, 20° C.

| Compound | Retention ([1]; 1%) | Shape of the drop during drying ([1]; 1%) | Shape of the drop just after deposit ([1]; 1%) | Retention ([1]; 2%) | Shape of the drop during drying ([1]; 2%) | Shape of the drop just after deposit ([1]; 2%) | Retention ([1]; 5%) | Shape of the drop during drying ([1]; 5%) | Shape of the drop just after deposit ([1]; 5%) | Retention ([2]; 1%) | Shape of the drop during drying ([2]; 1%) | Shape of the drop just after deposit ([2]; 1%) | Retention ([2]; 2%) | Retention ([2]; 5%) | Shape of the drop during drying ([2]; 5%) | Shape of the drop just after deposit ([2]; 5%) | Intensity of the penetration strength [3] | Penetration [3] | Shape of the drop during drying ([2]; 2%) | Shape of the drop just after deposit ([2]; 2%) |
| --- | --- | --- | --- | --- | --- | --- | --- | --- | --- | --- | --- | --- | --- | --- | --- | --- | --- | --- | --- | --- |
| CCCCOCC1CCCO1 (stereo not drawn) [n-butyl THF, 2-(butoxymetyl)tetrahydrofuraan] | 3 | 2 | 2 | 3 | 4 | 4 | 3 | 5 | 5 | 3 | 2 | 2 | 3 | 3 | 4 | 4 | 2 | 2 |  |  |
| CC(C)(C)OCC1CCCO1 (stereo not drawn) [t-butyl THF, 2-(tert-Butoxymethyl)tetrahydrofuran] | 3 | 1 | 1 | 3 | 1 | 1 | 3 |  |  | 3 | 1 | 1 | 3 | 3 | 2 | 2 | 2 | 2 | 2 | 1 |
